Measured values taken from article PMC4104028.

Target: GFP-WIPI2b
Test: co-IP; lysates of HEK293A cells expressing GFP-tagged WIPI proteins mixed with lysates of HEK293A cells expressing FLAG-Atg16L1, its mutants or Atg16L2; GFP-TRAP; immunoblot

binding: no binding
B1: FLAG-Atg16L2 (protein, UniProt Q6KAU8 1-623)
chain: MAGPGAPCDPCAPAAVWKRHIVRQLRHRDRTQKALFLELVPAYNHLLEKAELLAKFSEKLKSEPKDAISTRHEDWREEVSGTGPDQVSSPASLRVKWQQEKKGLQLVCGEMAYQVVKKSAALDTLQSQLEERQDRLEALQACVVQLQEARAQQSRQLEERQAENAAQREAYETLLQQAVHQEAALRRLQEEARDLLEQLVQRKARAAAERNLRNERRERANQALVSQELKKAAKRTVSISEIPNTLEDGTKEETVALAPAALPEFSESETCEKWKRPFRSASATSLTLSRCVDVVKGLLDFKKRRGHSVGGAPEQRYQSIPVCVSAQIPSQAQDVLDAHLSEVNAVCFGPNSSLLATGGADRLIHLWNVVGGRLEANQTLEGAGGSITSVDFDPSGSQVLAATYNQAAQLWKVGETQSKETLSGHKDKVTAAKFKLTRHQAVTGSRDRTVKEWDLGRAYCSRTINVLSYCNDVVCGDHIIISGHNDQKIRFWDSRGPHCIQVIPVQGRVTSLHLSYDQLHLLSCSRDNTLKVIDLRISNIRQVFRADGFKCSSDWTKAVFSPDRSYALAGSSNGDLYIWDVNTGKLETSLQGPHCTAVNAVAWCFSGNHVVSVDQGRKVVLWH

No constants are given. Whether binding was seen depends on the method and setting. In cells and extracts the contact can be indirect. Tags and fused reporters may be left off the sequences shown.
